Some results were stated once for a whole list of compounds, not compound by compound. Some ranges recur; such a range may be that of the whole group of compounds.
Tests used:
[1] = test system: APESV; test: greenhouse herbicidal activity, pre-emergence treatment; assay type: in vivo, Apera spica-venti; conditions: pre-emergence method, scale 0 to 100
Source text: (§1) The culture containers used were plastic flowerpots containing loamy sand with approximately 3.0% of humus as the substrate. The seeds of the test plants were sown separately for each species.
(§2) For the pre-emergence treatment, the active ingredients, which had been suspended or emulsified in water, were applied directly after sowing by means of finely distributing nozzles. The containers were irrigated gently to promote germination and growth and subsequently covered with transparent plastic hoods until the test plants had rooted. This cover caused uniform germination of the test plants, unless this had been impaired by the active ingredients. For the post-emergence treatment, the test plants were first grown to a height of 3 to 15 cm, depending on the plant habit, and only then treated with the active ingredients which had been suspended or emulsified in water. For this purpose, the test plants were either sown directly and grown in the same containers, or they were first grown separately as seedlings and transplanted into the test containers a few days prior to treatment.
(§3) Depending on the species, the test plants were kept at 10-25° C. or 20-35° C., respectively. The test period extended over 2 to 4 weeks. During this time, the test plants were tended, and their response to the individual treatments was evaluated.
(§4) Evaluation was carried out using a scale from 0 to 100. 100 means no emergence of the test plants, or complete destruction of at least the aerial moieties, and 0 means no damage, or normal course of growth. A good herbicidal activity is given at values of 80 to 90 and a very good herbicidal activity is given at values of 90 to 100.
(§5) The test plants used in the greenhouse experiments were of the following species: Bayer code Scientific name

[2] = test system: AMARE; test: as above; assay type: in vivo, Amaranthus retroflexus; conditions: pre-emergence method, scale 0 to 100
Source text: as §1, §2, §3, §4, §5

[3] = test system: ABUTH; test: greenhouse herbicidal activity, post-emergence treatment; assay type: in vivo, Abutilon theophrasti; conditions: post-emergence method, application rate 0,500 kg/ha; scale 0 to 100
Source text: as §1, §2, §3, §4, §5

[4] = test system: ECHCG; test: as above; assay type: in vivo, Echinocloa crus-galli; conditions: post-emergence method, scale 0 to 100
Source text: as §1, §2, §3, §4, §5

[5] = test system: SETVI; test: as above; assay type: in vivo, Setaria viridis; conditions: post-emergence method, scale 0 to 100
Source text: as §1, §2, §3, §4, §5

[6] = test system: SETFA; test: greenhouse herbicidal activity, pre-emergence treatment; assay type: in vivo, Setaria faberi; conditions: pre-emergence method, application rate 0,500 kg/ha; scale 0 to 100
Source text: as §1, §2, §3, §4, §5

[7] = test system: AMARE; test: greenhouse herbicidal activity, post-emergence treatment; assay type: in vivo, Amaranthus retroflexus; conditions: post-emergence method, scale 0 to 100
Source text: as §1, §2, §3, §4, §5

[8] = test system: ALOMY; test: as above; assay type: in vivo, Alopercurus myosuroides; conditions: post-emergence method, application rate 0,500 kg/ha; scale 0 to 100
Source text: as §1, §2, §3, §4, §5

[9] = test system: AVEFA; test: as above; assay type: in vivo, Avena fatua; conditions: post-emergence method, application rate 0,500 kg/ha; scale 0 to 100
Source text: as §1, §2, §3, §4, §5

[10] = test system: ECHCG; test: greenhouse herbicidal activity, pre-emergence treatment; assay type: in vivo, Echinocloa crus-galli; conditions: pre-emergence method, scale 0 to 100
Source text: as §1, §2, §3, §4, §5

[11] = test system: ALOMY; test: as above; assay type: in vivo, Alopercurus myosuroides; conditions: pre-emergence method, application rate 0,250 kg/ha; scale 0 to 100

Row | SMILES | herbicidal activity against APESV ([1]; application rate 0,500 kg/ha) | herbicidal activity against AMARE ([2]; application rate 0,500 kg/ha) | herbicidal activity against ABUTH [3] | herbicidal activity against SETVI ([5]; application rate 0,500 kg/ha) | other results
1 | COC(=O)[C@@H]1C=C[C@H](NC(=O)C2(C)CN(c3cc(F)cc(F)c3)C2=O)C1 (relative stereo) [compound 112] | very good (a very good herbicidal activity is given at values of 90 to 100) | very good (a very good herbicidal activity is given at values of 90 to 100) | very good (a very good herbicidal activity is given at values of 90 to 100) | very good (a very good herbicidal activity is given at values of 90 to 100) | herbicidal activity against ECHCG ([4]; application rate 0,500 kg/ha): very good (a very good herbicidal activity is given at values of 90 to 100)
2 | COC(=O)[C@@H]1C=C[C@H](NC(=O)C2(C)CN(c3cc(Cl)cc(Cl)c3)C2=O)C1 (relative stereo) [compound 121] | – | – | very good (a very good herbicidal activity is given at values of 90 to 100) | – | herbicidal activity against SETFA [6]: very good (a very good herbicidal activity is given at values of 90 to 100)
3 | CCC1(C(=O)N[C@H]2C=C[C@@H](C(=O)OC)C2)CN(c2cc(Cl)cc(Cl)c2)C1=O (relative stereo) [compound 124] | very good (a very good herbicidal activity is given at values of 90 to 100) | very good (a very good herbicidal activity is given at values of 90 to 100) | good (A good herbicidal activity is given at values of 80 to 90) | very good (a very good herbicidal activity is given at values of 90 to 100) | herbicidal activity against AMARE ([7]; application rate 0,500 kg/ha): very good (a very good herbicidal activity is given at values of 90 to 100)
4 | COC(=O)C1CCC(NC(=O)C2(C)CN(c3cc(Cl)cc(Cl)c3)C2=O)C1 (centres unmarked) [compound 16] | very good (a very good herbicidal activity is given at values of 90 to 100) | very good (a very good herbicidal activity is given at values of 90 to 100) | very good (a very good herbicidal activity is given at values of 90 to 100) | – | herbicidal activity against ALOMY [8]: very good (a very good herbicidal activity is given at values of 90 to 100); herbicidal activity against AVEFA [9]: good (A good herbicidal activity is given at values of 80 to 90)
5 | CCC1(C(=O)NC2C=CC(C(=O)OC)C2)CN(c2cc(Cl)cc(Cl)c2)C1=O (centres unmarked) [compound 129] | very good (a very good herbicidal activity is given at values of 90 to 100) | very good (a very good herbicidal activity is given at values of 90 to 100) | very good (a very good herbicidal activity is given at values of 90 to 100) | very good (a very good herbicidal activity is given at values of 90 to 100) | herbicidal activity against ECHCG ([10]; application rate 0,500 kg/ha): very good (a very good herbicidal activity is given at values of 90 to 100); herbicidal activity against AMARE ([7]; application rate 0,500 kg/ha): very good (a very good herbicidal activity is given at values of 90 to 100)
6 | CCC1(C(=O)NC(C)CC(=O)OC)CN(c2cc(Cl)cc(Cl)c2)C1=O (centres unmarked) [compound 130] | – | – | – | – | herbicidal activity against APESV ([1]; application rate 0,250 kg/ha): very good (a very good herbicidal activity is given at values of 90 to 100); herbicidal activity against ECHCG ([10]; application rate 0,250 kg/ha): very good (a very good herbicidal activity is given at values of 90 to 100); herbicidal activity against ALOMY [11]: very good (a very good herbicidal activity is given at values of 90 to 100); herbicidal activity against AMARE ([7]; application rate 0,250 kg/ha): very good (a very good herbicidal activity is given at values of 90 to 100); herbicidal activity against ECHCG ([4]; application rate 0,250 kg/ha): very good (a very good herbicidal activity is given at values of 90 to 100); herbicidal activity against SETVI ([5]; application rate 0,250 kg/ha): very good (a very good herbicidal activity is given at values of 90 to 100)
7 | COC(=O)C1C=CC(NC(=O)C2(C)CN(c3cccc(Cl)c3)C2=O)C1 (centres unmarked) [compound 136] | – | – | – | – | herbicidal activity against AMARE ([2]; application rate 0,250 kg/ha): very good (a very good herbicidal activity is given at values of 90 to 100); herbicidal activity against ECHCG ([10]; application rate 0,250 kg/ha): very good (a very good herbicidal activity is given at values of 90 to 100); herbicidal activity against ALOMY [11]: very good (a very good herbicidal activity is given at values of 90 to 100)
